By UniProt entry, the sequences of proteins in these tests, tags left out.
UniProt P23443, whole entry T412E: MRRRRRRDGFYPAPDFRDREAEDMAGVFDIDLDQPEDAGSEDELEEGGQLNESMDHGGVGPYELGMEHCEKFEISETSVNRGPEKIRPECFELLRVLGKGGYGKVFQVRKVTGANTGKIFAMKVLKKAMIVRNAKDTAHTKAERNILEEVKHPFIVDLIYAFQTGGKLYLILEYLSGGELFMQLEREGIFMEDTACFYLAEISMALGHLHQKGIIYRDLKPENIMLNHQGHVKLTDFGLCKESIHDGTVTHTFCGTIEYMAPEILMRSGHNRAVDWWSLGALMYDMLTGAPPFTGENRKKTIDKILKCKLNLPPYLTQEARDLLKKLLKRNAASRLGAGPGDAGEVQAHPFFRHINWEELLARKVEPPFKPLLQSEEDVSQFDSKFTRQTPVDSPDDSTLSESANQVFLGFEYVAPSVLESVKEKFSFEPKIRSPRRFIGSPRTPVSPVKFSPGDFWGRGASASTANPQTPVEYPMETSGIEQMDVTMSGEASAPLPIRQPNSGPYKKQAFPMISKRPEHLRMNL

In ChEMBL document CHEMBL4828767, “Identification of Clinical Candidate M2698, a Dual p70S6K and Akt Inhibitor, for Treatment of PAM Pathway-Altered Cancers” (J Med Chem, 2021):

Target: Ribosomal protein S6 kinase beta-1 (Homo sapiens, UniProt P23443, T412E)
Format: cell-based, Sf21

## NC(=O)c1cccc2c(NCc3ccc(F)cc3)ncnc12
  IC50: 42 nM
